These results are taken from patent US9187784B2 (VIB VZW, priority 2011, dated 2015).

Where a sequence shows no end group, the ends are not given.

This series is described as follows: peptide made by a vendor. The note with it: whole synthesis.

As to KYLPYWPVLSSL, the “purity (crude or final not stated)” value came out at 95% purity.
